Measurements from paper PMC11671593.
Results are given in words; binding and its absence hold for the method and conditions named. In cells and extracts the contact can be indirect. Here binding means that the protein was enriched with, or labelled near, the bait; the list need not be complete.

By UniProt entry, the sequences of proteins in these tests, tags left out.
UniProt Q06330: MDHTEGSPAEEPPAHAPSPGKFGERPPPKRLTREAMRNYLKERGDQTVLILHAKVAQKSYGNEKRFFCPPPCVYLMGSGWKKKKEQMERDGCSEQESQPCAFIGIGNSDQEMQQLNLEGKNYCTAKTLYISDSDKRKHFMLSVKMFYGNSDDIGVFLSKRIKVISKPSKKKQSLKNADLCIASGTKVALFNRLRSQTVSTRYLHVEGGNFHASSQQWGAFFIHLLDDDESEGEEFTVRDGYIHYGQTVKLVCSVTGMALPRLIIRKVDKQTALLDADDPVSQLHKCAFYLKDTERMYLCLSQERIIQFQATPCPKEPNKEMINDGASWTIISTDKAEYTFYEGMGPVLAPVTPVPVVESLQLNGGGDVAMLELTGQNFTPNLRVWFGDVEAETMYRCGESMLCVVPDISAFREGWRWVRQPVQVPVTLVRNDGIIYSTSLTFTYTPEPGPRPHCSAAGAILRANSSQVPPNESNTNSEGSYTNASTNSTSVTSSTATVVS

Target: T1, Tripartite motif containing 59 (TRIM59), in PC cells (human (in human PC cell lines)) (UniProt Q8IWR1)
T1 sequence: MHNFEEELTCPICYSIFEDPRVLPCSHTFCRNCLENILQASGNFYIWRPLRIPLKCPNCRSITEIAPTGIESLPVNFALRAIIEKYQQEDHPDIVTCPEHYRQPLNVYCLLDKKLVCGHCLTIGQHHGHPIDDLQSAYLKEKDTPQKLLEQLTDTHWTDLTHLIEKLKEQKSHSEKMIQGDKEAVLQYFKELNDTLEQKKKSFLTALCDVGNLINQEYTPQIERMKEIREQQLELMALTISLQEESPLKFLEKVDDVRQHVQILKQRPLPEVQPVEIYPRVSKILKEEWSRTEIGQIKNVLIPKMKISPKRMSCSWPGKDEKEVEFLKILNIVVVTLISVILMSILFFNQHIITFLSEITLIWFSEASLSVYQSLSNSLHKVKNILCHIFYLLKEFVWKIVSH
Test: affinity purification with mass spectrometry; Co-IP (primary antibody, protein A + G sepharose beads), SDS-PAGE, silver staining and MS; cells not named

binding: binds
Substance: Recombination signal binding protein for immunoglobulin kappa J region (RBPJ), in PC cells (from UniProt Q06330 1-500)
